In patent publication US20210171652A1 one finds binding data, which are given here for one molecule.

By UniProt entry, the sequences of proteins in these tests, tags left out. Where a name states a change or a piece, a line headed by the entry shows the natural chain unless it says otherwise.
UniProt P02724: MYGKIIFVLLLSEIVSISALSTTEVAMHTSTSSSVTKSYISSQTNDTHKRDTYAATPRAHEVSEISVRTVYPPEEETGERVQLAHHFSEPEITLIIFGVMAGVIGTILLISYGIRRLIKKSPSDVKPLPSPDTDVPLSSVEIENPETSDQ

No constants are given. Whether binding was seen depends on the method and setting. Some binding calls cover weakened binding; strength is not graded here.

The assay addresses Band 3 / glycophorin A (Wright b, Wrb epitope) on human red blood cells (human) (UniProt P02724). Description: Fab/phage binding assays on human RBCs incl. rare RBC types lacking conserved antigens.

B1: KP3-03 Fab/phage clone (anti-Band 3, Wrb) (Fab, V domains shown)
VH: EVQLLESGPGLVKPSETLSLTCTVSGSSLSSAYGWNWIRQPPGKGLEWIGSIGGSRDNTNYNPSLKRRVTISKDTSKNQFSLKLKSVTAADTAVYYCAQRGAYGYSYFDYWGQGVLVAVSS
VL: AAELTQSPATLSLSPGETATLSCRASQSVGSYLAWYQQKPGQAPKLLVHGAYFRAAGIPDRFTGSGSRTDFTLTISSLEPEDVGIYHCQQYNDLLPLTFGGGTKVEIK
Regarding B1, the binding entry is on record as “binds”.
